* marks the point of attachment. NHBn = c1ccc(CN*)cc1

Data set [1] in a line: peptide synthesis. The following applies: whole synthesis, scale 0.424 mmol.
Data set [2] is described as follows: general procedure: solution-phase peptide synthesis.

In the case of “Boc-Val-Gln(Tr)-Lys(Boc)-Asp(OAll)-Val-Thr(^tBu)-Ser(^tBu)-OH”, in data set [1], the “crude HPLC purity” value is listed as 83% pure, the crude mass is recorded as 422 mg and the crude yield is listed as 73% crude yield.
As for (H-Cys-Tyr-Ala-Thr-NHBn)2, the step yield in data set [2] (coupling step, one disulfide bridge, sequence written open) is given as 40%.
H-CYAT-NHBn returned a step yield in data set [2] (coupling step) of 43%.
The substance H-Val-Gln-Lys-Asp(SH)-Val-Thr-Ser-OMe registered a step yield in data set [2] (late stage modification step) of 57% yield.
For the substance H-EYTT-NHBn, the step yield in data set [2] (coupling step, TFA salt, run 1) amounted to 71% yield; in data set [2] (coupling step, TFA salt, run 2), 88% yield.
As for “Boc-Val-Gln(Tr)-Lys(Boc)-Asp-Val-Thr(^tBu)-Ser(^tBu)-OMe”, the isolated yield in data set [2] (whole synthesis, over 15 steps) came to 54% yield over 15 steps.

For the origin of these results see patent publication US9145440 (dated 2015).
